The values below come from publication PMC10483525, “Synthesis, Structural Investigations, DNA/BSA Interactions, Molecular Docking Studies, and Anticancer Activity of a New 1,4-Disubstituted 1,2,3-Triazole Derivative” (ACS Omega, 2023).

The data set concerns CT-DNA. As to the kind of experiment: UV–vis absorption spectral titration with CT-DNA. The class given is binding. The conditions noted are these: for Δλ (bathochromic shift): band 272–285 nm, Tris-HCl buffer; for ΔG: van't Hoff equation from Kb, CT-DNA binding.
Setting [1] is: compound 50 μM, CT-DNA 0–100 μM.

For `O=Cc1ccc(OCc2cn(-c3ccc(Cl)c(Cl)c3)nn2)cc1O` [Compound 3, 4-((1-(3,4-Dichlorophenyl)-1H-1,2,3-triazol-4-yl)methoxy)-2-hydroxybenzaldehyde], the ΔG result is on record as “–31.25 kJ·mol^–1”. Under setting [1], the “Δλ (bathochromic shift)” value came to 13.00 nm and the isosbestic point was 370–390 nm. In addition, the “Δλ (bathochromic shift)” value (compound 50 μM, CT-DNA 0–100 μM, listed as compound 3) is on record as 13 nm. The “% H (hypochromism)” value (band at 272 nm, compound 50 μM, CT-DNA 0–100 μM) is “–86.18%”. Further, under “listed as compound 3”, the ΔG was −31.25 kJ·mol^–1.
